Test results as given in publication PMC8469580.
Results are given in words; binding and its absence hold for the method and conditions named. A result given as binding can be weak or reduced; the word gives no strength.

By UniProt entry, the sequences of proteins in these tests, tags left out.
UniProt Q9UI95: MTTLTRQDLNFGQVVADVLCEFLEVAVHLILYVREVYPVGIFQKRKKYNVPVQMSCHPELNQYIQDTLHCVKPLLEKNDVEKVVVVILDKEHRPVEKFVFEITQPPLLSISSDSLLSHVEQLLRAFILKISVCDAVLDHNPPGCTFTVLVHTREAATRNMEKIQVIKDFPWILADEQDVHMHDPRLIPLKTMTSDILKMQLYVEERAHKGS

Molecular target: EspF variant from EPEC O127:H6, protein A fusion (LUMIER) (Escherichia coli EPEC O127:H6) (UniProt B7UM88)
Assay: LUMIER; protein A fusion and Renilla luciferase fusion transiently expressed in Caco-2 cells; lysate (20 mM Tris pH 7.5, 250 mM NaCl, 1% Triton X-100, 10 mM EDTA, 10 mM DTT); protein A fusion held on IgG-coated magnetic beads, on ice; luciferase activity on washed beads, z-scores; inverse combinations also tested

## Mitotic Arrest-Deficient 2 Like 2 (MAD2L2), Renilla luciferase fusion (LUMIER) (from UniProt Q9UI95 1-211)
  binding: binds
